# In PubChem BioAssay AID493014 (National Center for Advancing Translational Sciences (NCATS), 2011):
# The list shows a part of the results. Further columns of the screen follow, without active or inactive calls. Compounds called inactive in the main read-out are mostly missing here. Words in brackets tell the shape of the fitted curve; partial curves, single points and poor fits give uncertain potencies.
# Assay: qHTS Assay to Find Inhibitors of Chronic Active B-Cell Receptor Signaling
# Details: ABC-DLBCL IkBa-CBG/CBR reporter, luminescence ratio (green luciferase fused to IkBa over red control in TMD8 lymphoma cells), 4 h
# Method in brief: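 Concentration-response series (up to 46 uM) were applied to TMD8 dual-reporter cells for 4 h at 37C with doxycycline. Green/red ratio, after filter-overlap correction, defined %Activity; red signal alone was normalised to basal cells and zero luminescence.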
# [1] = measured here: CBR red luminescence, cell number
# [2] = measured here: IkBa-CBG green luminescence
Structure (SMILES),AC50 [1],AC50 [2]
O=C(Nc1nc2cc3c(cc2s1)OCO3)c1ccc(N2C(=O)CCC2=O)cc1,"0.891 µM [falling, full curve]","0.501 µM [rising, full curve, poor fit]"
CCCc1ccc(OCc2ccc(C(=O)N3CCN(c4ccccn4)CC3)o2)c(OC)c1,"18.4 µM [falling, single point]",
CC(C)(C)c1ccc(OCC(=O)N/N=C/c2ccsc2)cc1,"13 µM [falling, partial curve, poor fit]",
O=C(NCc1ccccc1Cl)c1cnc2ccccc2n1,"35.5 µM [falling, single point]",
CC(C)(C)c1cc[n+](C2=C([O-])c3ccccc3C(=O)/C2=N\S(=O)(=O)c2ccccc2)cc1,"17.8 µM [falling, single point]",
COc1ccc(-c2csc(NC(=O)CCCc3nc4ccccc4c(=O)[nH]3)n2)cc1OC,"20.6 µM [falling, single point]",
CC(=O)Nc1ccc(OCC(O)Cn2nc(C)nc2C)cc1 (stereo not drawn),"6.51 µM [falling, single point]",
CCOC(=O)CC(=O)CSc1nc2ccccc2c(=O)n1CCc1ccccc1,"14.1 µM [falling, single point]","17.8 µM [rising, partial curve, poor fit]"
Cc1ccc(OCc2nnc(SCc3ccc(C#N)cc3)n2-c2ccc(C)cc2)cc1,,"6.51 µM [rising, partial curve, poor fit]"
CC(C)n1nc(C(=O)NC2CCCCCC2)c2ccccc2c1=O,"18.4 µM [falling, single point]",
Cc1cc(C)n(-c2ncnc3sc(C)c(C)c23)n1,"32.6 µM [rising, single point]",
C=C(C)Cn1c(CCNC(=O)C(C)(C)C)nc2ccccc21,"0.326 µM [rising, partial curve, poor fit]",
CCCn1c(NC(=O)c2ccc(Cl)c(S(=O)(=O)N3CCCC3)c2)nc2ccccc21,"14.1 µM [falling, single point]",
Cc1cc2cc(CNC(=O)Nc3cccc(Cl)c3)ccc2n1C,"29.1 µM [rising, single point]",
CC(=O)Nc1ccc(S(=O)(=O)N2CCN(c3ccccc3)CC2)cc1,"2.24 µM [rising, partial curve, poor fit]",
COc1ccc(N(C(=O)Cn2nnc3ccccc32)C(C(=O)NCc2ccco2)c2ccc(C)o2)cc1 (stereo not drawn),"22.4 µM [falling, single point]",
CSc1ccc(S(=O)(=O)Nc2ccc(OCC(=O)N3CCOCC3)cc2)cc1,"22.4 µM [falling, partial curve, poor fit]",
C/C(=N\NC(=O)c1cc2c(s1)CCC(C)C2)c1ccncc1 (stereo not drawn),"16.4 µM [rising, partial curve, poor fit]",
COc1ccc(S(=O)(=O)N2CCN(C(=O)COc3ccc4c(C)cc(=O)oc4c3)CC2)cc1,"3.55 µM [falling, single point]",
Cc1cc(C(=O)N2CCOCC2)ccc1[N+](=O)[O-],"1.78 µM [falling, full curve]",

# Reformatted bar-delimited: part of the list above.
Structure (SMILES) | AC50 [1] | AC50 [2]
O=C(NCc1ccccc1Cl)c1cnc2ccccc2n1 | 35.5 µM [falling, single point] | 
CC(C)(C)c1cc[n+](C2=C([O-])c3ccccc3C(=O)/C2=N\S(=O)(=O)c2ccccc2)cc1 | 17.8 µM [falling, single point] | 
COc1ccc(-c2csc(NC(=O)CCCc3nc4ccccc4c(=O)[nH]3)n2)cc1OC | 20.6 µM [falling, single point] | 

# Continuation:

Structure (SMILES),AC50 [1],AC50 [2]
Cc1ccc(Nc2nc3ccc(Cl)cc3n3cnnc23)cc1F,"1.58 µM [rising, full curve, poor fit]",
CCOc1ccc(CCNC(=O)c2[nH]c(C)c(C(C)=O)c2CC)cc1OCC,"20 µM [rising, partial curve, poor fit]",
CCOC(=O)[C@H]1[C@H]2COc3ccc(Br)cc3[C@@H]2N2C(=O)c3cc(F)c(F)cc3NC(=O)[C@@]12C,"23.1 µM [falling, single point]",
C=CCOc1cccc(CNc2cccc(C(=O)O)c2)c1,"35.5 µM [falling, single point]",
CCN(C(=O)CCN1C(=O)S/C(=C\c2ccccc2)C1=O)C1CCS(=O)(=O)C1 (stereo not drawn),"22.4 µM [falling, single point]",
O=S(=O)(Nc1cccc2cccnc12)c1ccc(S(=O)(=O)N2CCCC2)cc1,"3.66 µM [rising, full curve]","9.2 µM [falling, partial curve]"
COC(=O)c1ccc(CO/N=C/c2ccc(OC)cc2OC)cc1,"12.6 µM [falling, partial curve]",
CCOC(=O)c1c(NC(=O)COC)sc(C(C)=O)c1C,"1.64 µM [falling, partial curve, poor fit]",
CN(C)c1ccnc(Nc2ccccc2)c1C#N,"11.2 µM [falling, partial curve]","14.1 µM [rising, single point]"
Cc1nn(C)cc1-c1csc(N)n1,"2.51 µM [rising, full curve, poor fit]",
CN1c2ccccc2C(O)=C(C(=S)Nc2ccc(Cl)cc2)S1(=O)=O,"29.1 µM [falling, single point]",
CCCCC[C@@H]1C=C(C(=O)O)[C@H](c2ccc(Cl)c(Cl)c2)N1S(=O)(=O)c1ccc(C)cc1,"29.1 µM [falling, single point]",
COc1cccc(C(=O)Nc2ccc(-n3nncc3-c3ccccc3)cc2)c1,"12.6 µM [falling, partial curve, poor fit]",
COc1ccc(/C=C2\Oc3cc(OCC(=O)N4CCC(C(=O)O)CC4)ccc3C2=O)c(OC)c1,"11.2 µM [falling, single point]",
Cc1ccc(SCC(=O)Nc2cccc(NC(=O)c3ccco3)c2)cc1,"1.12 µM [falling, full curve, poor fit]",
CC(C)(C)C(=O)NC(=S)Nc1sc2c(c1C#N)CCCCC2,"29.1 µM [rising, single point]",
O=C1/C(=C/c2cccc3ccccc23)CCCc2ccccc21,"3.26 µM [rising, full curve, poor fit]",
CCCOC(=O)c1c(NC(=O)CSc2nc(-c3ccco3)cc(C(F)(F)F)n2)sc(C(=O)OC)c1C,"5.17 µM [falling, partial curve, poor fit]",
Cc1nc2sc(-c3ccccc3)cc2c(=O)n1-n1cccc1,"1.12 µM [rising, full curve]",
